From patent US20220323391A1 (HAMLET PHARMA AB, priority 2019, published 2022)

Assay: peptide made by a vendor (Fmoc solid-phase peptide synthesis)
Settings: whole synthesis

## Ac-KQFTKAELSQLLKDIDGYGGIALPELIATMFHTSGYDTQ-OH
  purity (crude or final not stated): >95%
